# Source: PubChem BioAssay AID1259254 (NCATS, 2017)
# Test: 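Genome-wide screen for genes that prevent DNA re-replication in cancer cells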 (primary screen)
# Cells: human HCT116 colorectal cancer cells
# Reagents: single siRNA against human genes
# Duration: 3 days
# Measurement: 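Nuclei stained with Hoechst and imaged; cell-cycle phase assigned by DNA content; G2 share scaled per plate, non-targeting siRNA 0%, GMNN siRNA 100%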
# Direction: G2 robust z-score and G2 cells, % of GMNN control: higher = more G2 cells, more excess DNA replication
# Rule for the call: 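Active siRNAs have a G2 robust z of 5 or more median absolute deviations over the median, which in these data means about 38% or higher of GMNN control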
# Here is an unselected part of about 59,000 reagents. Of all reagents, about 1,550 (2.6%) were called active. 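G2 share is only a proxy for re-replication; each gene was hit by three separate siRNAs, and active genes were retested.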 Reagents against one gene are numbered here. Further read-outs or replicates are left out here. Not stated in the record: the amount of reagent.
Gene,reagent,G2 robust z-score,"G2 cells, % of GMNN control",Call
PLG (plasminogen),1,0.31,5.15,inactive
PLG (plasminogen),2,-0.00882,2.91,inactive
PLG (plasminogen),3,-0.415,0.045,inactive
VMAC,1,-0.361,0.429,inactive
VMAC,2,-0.323,0.692,inactive
VMAC,3,-0.163,1.82,inactive
MCMDC2 (minichromosome maintenance domain containing 2),1,-0.467,-0.318,inactive
MCMDC2 (minichromosome maintenance domain containing 2),2,-0.292,0.91,inactive
MCMDC2 (minichromosome maintenance domain containing 2),3,-1.02,-4.23,inactive
OCIAD2 (OCIA domain containing 2),1,0.927,9.49,inactive
OCIAD2 (OCIA domain containing 2),2,-0.335,0.613,inactive
OCIAD2 (OCIA domain containing 2),3,2.08,17.6,inactive

In a second layout: entries from further up.
Gene | reagent | G2 robust z-score | G2 cells, % of GMNN control | Call
MCMDC2 (minichromosome maintenance domain containing 2) | 1 | -0.467 | -0.318 | inactive
MCMDC2 (minichromosome maintenance domain containing 2) | 2 | -0.292 | 0.91 | inactive

More reagents:
Gene,reagent,G2 robust z-score,"G2 cells, % of GMNN control",Call
WDR36 (WD repeat domain 36),1,-0.259,1.15,inactive
WDR36 (WD repeat domain 36),2,0.809,8.66,inactive
WDR36 (WD repeat domain 36),3,1.28,12,inactive
TRABD2A (TraB domain containing 2A),1,-0.274,1.04,inactive
TRABD2A (TraB domain containing 2A),2,-0.961,-3.79,inactive
TRABD2A (TraB domain containing 2A),3,-0.292,0.915,inactive
PTPRA (protein tyrosine phosphatase receptor type A),1,-0.143,1.96,inactive
PTPRA (protein tyrosine phosphatase receptor type A),2,0.76,8.32,inactive
PTPRA (protein tyrosine phosphatase receptor type A),3,1.07,10.5,inactive
"B3GAT3 (beta-1,3-glucuronyltransferase 3)",1,3.28,26,inactive
"B3GAT3 (beta-1,3-glucuronyltransferase 3)",2,0.663,7.63,inactive
"B3GAT3 (beta-1,3-glucuronyltransferase 3)",3,10.2,74.9,active
CRISP2 (cysteine rich secretory protein 2),1,-0.618,-1.38,inactive
CRISP2 (cysteine rich secretory protein 2),2,1.47,13.3,inactive
CRISP2 (cysteine rich secretory protein 2),3,4.37,33.7,inactive
GOLGA2P11 (GOLGA2 pseudogene 11),1,-0.332,0.631,inactive
GOLGA2P11 (GOLGA2 pseudogene 11),2,-0.0795,2.41,inactive
GOLGA2P11 (GOLGA2 pseudogene 11),3,-0.867,-3.14,inactive
